Laboratory results reported in publication PMC7819943, “Rice protein-binding microarrays: a tool to detect cis-acting elements near promoter regions in rice”.
This is one part of the list.

Amino acid sequences for entries named in this document (tags omitted).
UniProt Q0JBA9, entry or part of it: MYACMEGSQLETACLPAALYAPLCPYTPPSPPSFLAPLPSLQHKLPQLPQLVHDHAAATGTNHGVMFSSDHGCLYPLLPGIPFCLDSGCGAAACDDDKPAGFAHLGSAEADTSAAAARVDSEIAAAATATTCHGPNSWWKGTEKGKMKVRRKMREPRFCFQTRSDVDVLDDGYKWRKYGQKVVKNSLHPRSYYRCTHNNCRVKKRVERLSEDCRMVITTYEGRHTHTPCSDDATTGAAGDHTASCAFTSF

target: OsWRKY34 (Oryza sativa, UniProt Q0JBA9 1-250); assay: protein-binding microarray (RPBM); PBS, 2% BSA, 51.3 ng/ul salmon testes DNA, 50 uM zinc acetate, 200 nM TF, 25 C, 1 h; high values mean tight binding; conditions: protein: recombinant; tags: N-terminal polyhistidine and DsRed monomer fusion (pET32a); label: CyDye5-dUTP incorporated in the synthesized complementary strand; 3' TTTTT single-stranded linker to array surface; dsDNA, one strand shown
In short: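 The binding signal for each feature is its fluorescence intensity in arbitrary units. An Axon 4000B scanner was used to read a custom Agilent array that had been made double-stranded with Cy5-dUTP primer extension, blocked with 2% BSA, incubated at 25 °C for 1 h with 200 nM protein in PBS, 2% BSA, salmon testes DNA and 50 µM zinc acetate, and washed. The protein was an N-terminal polyhistidine–DsRed transcription factor fusion from E. coli BL21-CodonPlus, purified on Ni–NTA.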

| Sequence | binding signal |
| --- | --- |
| GCGTGAGTGCGGAAAACGAGGGGAGGGGTTGGGAACTTGACGGAGTCACCTAGTGCAG | 9150 fluorescence intensity (a.u.) |
| GCAGTCCCGGGTCACTGACCGTTTTGACCACCGGTGACCTCGGAGTCACCTAGTGCAG | 9150 fluorescence intensity (a.u.) |
| AAGTGTGCCTTATTTTACCATTTGGTTGAGCGTATATATACGGAGTCACCTAGTGCAG | 10000 fluorescence intensity (a.u.) |
| TCAACTTTTCTATCACATCAAAACTTTCCTACGCACATAACGGAGTCACCTAGTGCAG | 8370 fluorescence intensity (a.u.) |
| CCCTTTCGGACCCTCGTCACTCATCGTCGTTTGCCCGGCGCGGAGTCACCTAGTGCAG | 9150 fluorescence intensity (a.u.) |
| TATCTCCTATCTCCGTCAGAAATCCAATCAATCGCGATTCCGGAGTCACCTAGTGCAG | 8580 fluorescence intensity (a.u.) |
| CTTCTTCGGATCACTCGGTTGGTTTCTTGGTTTCTTGGTTCGGAGTCACCTAGTGCAG | 13000 fluorescence intensity (a.u.) |
| ATCAACTCCACTTCTCACACGCAGCACGCTTGCAAAATCCCGGAGTCACCTAGTGCAG | 10400 fluorescence intensity (a.u.) |
| AGTACCTTTTTAGCGTATTTTTGCAGAATGTGTGTATCTCCGGAGTCACCTAGTGCAG | 8850 fluorescence intensity (a.u.) |
| GATGTGCTAATGCCTAATGGAATCATATTTTTATTCTGTCCGGAGTCACCTAGTGCAG | 8380 fluorescence intensity (a.u.) |
| GCAAAAGTCCTCTTGCTCGTGTTGTAGTTGTGTTGCGTTCCGGAGTCACCTAGTGCAG | 8550 fluorescence intensity (a.u.) |
| GACTTTTTAGTACGTGTTTGACCATTCGTCTTATTCAAAACGGAGTCACCTAGTGCAG | 11900 fluorescence intensity (a.u.) |
| ACAACCCACTGCGCTGCCCGCCGCCGCCGTCTCCGGCCGACGGAGTCACCTAGTGCAG | 8570 fluorescence intensity (a.u.) |
| TAACTCATATCTCTCCTTTTTCACGCACACGCTTTTTAAACGGAGTCACCTAGTGCAG | 10300 fluorescence intensity (a.u.) |
| CGCCGCTGCACCCGCCGCCGCCGCCGCCACACCACCGATGCGGAGTCACCTAGTGCAG | 11200 fluorescence intensity (a.u.) |
| AGGTGAGGTTTGTTGCTACTTCACCTTCGCTTCGTTGCGCCGGAGTCACCTAGTGCAG | 8440 fluorescence intensity (a.u.) |
| TGATTTCACTTTGATTCCTCGTCTCTTCTCCTCCTCTATACGGAGTCACCTAGTGCAG | 9720 fluorescence intensity (a.u.) |
| GCTGCTCACCCGCCACTCCATCTACTCCAACTGCAGGCCCCGGAGTCACCTAGTGCAG | 8360 fluorescence intensity (a.u.) |
| ATCGCCCATCTTACACGTGCACATGCTCCCGTGTCACCTCCGGAGTCACCTAGTGCAG | 10400 fluorescence intensity (a.u.) |
| CGTCTTCCTACTCCTTTGGACTACTAGCCCGACGCGACCACGGAGTCACCTAGTGCAG | 8830 fluorescence intensity (a.u.) |
| TTGTTTTGTGAGTTTCTTGCTCTGGTAATTTATTGTCCTCCGGAGTCACCTAGTGCAG | 8710 fluorescence intensity (a.u.) |

3 consecutive records already listed, quoted:

| Sequence | binding signal |
| --- | --- |
| TGATTTCACTTTGATTCCTCGTCTCTTCTCCTCCTCTATACGGAGTCACCTAGTGCAG | 9720 fluorescence intensity (a.u.) |
| GCTGCTCACCCGCCACTCCATCTACTCCAACTGCAGGCCCCGGAGTCACCTAGTGCAG | 8360 fluorescence intensity (a.u.) |
| ATCGCCCATCTTACACGTGCACATGCTCCCGTGTCACCTCCGGAGTCACCTAGTGCAG | 10400 fluorescence intensity (a.u.) |

Next records

| Sequence | binding signal |
| --- | --- |
| GGAGGGGTGAGGTTCATTTCTTTGCTCGATAAGGTTTTTGCGGAGTCACCTAGTGCAG | 13900 fluorescence intensity (a.u.) |
| TCACTTGCACATGGAACCCACTTCTATTTTAAATTCTTTACGGAGTCACCTAGTGCAG | 9040 fluorescence intensity (a.u.) |
| CCCAGGTAGGATATGTGTATGTGTTTATATGGGTGAGTCTCGGAGTCACCTAGTGCAG | 9300 fluorescence intensity (a.u.) |
| CACTATTTACATTCATATTTCTTATTTTCGTTTCATACTTCGGAGTCACCTAGTGCAG | 11100 fluorescence intensity (a.u.) |
| TCTCTTCCATTCCACCTCTCCATCTCGCCGGAATCTCACCCGGAGTCACCTAGTGCAG | 8490 fluorescence intensity (a.u.) |
| TTTGGCTTTTCTCACTTCCTTATTAATCGTGGACTCTCTTCGGAGTCACCTAGTGCAG | 9930 fluorescence intensity (a.u.) |
| GTACAATGCTTCACCATCAGCCCTTTGTCCTGCAGTACGTCGGAGTCACCTAGTGCAG | 10900 fluorescence intensity (a.u.) |
| TAACCCAACCCATTTGTTCTTAGCTAGAGCCACCACCACCCGGAGTCACCTAGTGCAG | 8350 fluorescence intensity (a.u.) |
| GGAGGTCGGTGGCCTCGGCGGTGGAGGTCGGGGTCGGGGACGGAGTCACCTAGTGCAG | 16500 fluorescence intensity (a.u.) |
| ACTCTACTCCCTCTGTTTCACAATGTAAGTTATTATATCACGGAGTCACCTAGTGCAG | 8200 fluorescence intensity (a.u.) |
| GTTTCCTCTGTTCTGCGAATTTGCAGGTTTAGCCACAGTACGGAGTCACCTAGTGCAG | 9270 fluorescence intensity (a.u.) |
| AGTTTTATCCTGGGTTTGTGTTTGGTGCTGTTCTTGCGTGCGGAGTCACCTAGTGCAG | 10200 fluorescence intensity (a.u.) |
| GACTCGATGGTAGCTCTAATTTGCAGTTTTTTTTTTTTTTCGGAGTCACCTAGTGCAG | 8970 fluorescence intensity (a.u.) |
| TTTTCCGGCCACGATGTCACGACTGCGCCATCACCATCCACGGAGTCACCTAGTGCAG | 8540 fluorescence intensity (a.u.) |
| AGAACCTTGGACTACTATTGTGGTTTTTATTTTTCTGGACCGGAGTCACCTAGTGCAG | 8140 fluorescence intensity (a.u.) |
| TGTTTTGAATTCCATTGTTTTCCTATGTTCTTTTTTCCTACGGAGTCACCTAGTGCAG | 8280 fluorescence intensity (a.u.) |
| GATATGATGGGTACAAACTGTTATAAACTAACATGTCTATCGGAGTCACCTAGTGCAG | 8340 fluorescence intensity (a.u.) |
| GACCTCGCCTGTCGCCACATCATCGCTGCCGTCGCCTACTCGGAGTCACCTAGTGCAG | 12900 fluorescence intensity (a.u.) |
| TAATTATTTTAATGGTTTTCTCGTTTTGCCACCGTGTATTCGGAGTCACCTAGTGCAG | 8320 fluorescence intensity (a.u.) |
| ATCATGCTAGGGTACTCGATACTCTCTGAAATTTACCCTACGGAGTCACCTAGTGCAG | 8290 fluorescence intensity (a.u.) |
| TAGATGTTTTGATTTTTTGTTTGCAACGTTTGACCATTCGCGGAGTCACCTAGTGCAG | 8040 fluorescence intensity (a.u.) |
